The target in experiment [1] is sarco-ER Ca^2+ ATPase 2 (SERCA2) (human (endogenous in HEK293)) (UniProt P16615). Put plainly: co-IP; reverse: HEK293 transfected with pMyc-SELT^U49C or pMyc for 48 h; immunoprecipitation with antibodies against SERCA2 or IP3R1 (IgG as control), protein A/G agarose; blot for Myc-SELT^U49C.
The target in a further experiment is Myc-tagged SELENOT^U49C (UniProt P62341). Nature of the experiment: co-IP; HEK293 transfected with pMyc-SELT^U49C or pMyc for 48 h; immunoprecipitation of Myc-SELT^U49C (anti-Myc, IgG as control), protein A/G agarose; blots for SERCA2, IP3R1 and RYR2.

Chains of the proteins cited; added tags and fusions are not shown.
UniProt P16615: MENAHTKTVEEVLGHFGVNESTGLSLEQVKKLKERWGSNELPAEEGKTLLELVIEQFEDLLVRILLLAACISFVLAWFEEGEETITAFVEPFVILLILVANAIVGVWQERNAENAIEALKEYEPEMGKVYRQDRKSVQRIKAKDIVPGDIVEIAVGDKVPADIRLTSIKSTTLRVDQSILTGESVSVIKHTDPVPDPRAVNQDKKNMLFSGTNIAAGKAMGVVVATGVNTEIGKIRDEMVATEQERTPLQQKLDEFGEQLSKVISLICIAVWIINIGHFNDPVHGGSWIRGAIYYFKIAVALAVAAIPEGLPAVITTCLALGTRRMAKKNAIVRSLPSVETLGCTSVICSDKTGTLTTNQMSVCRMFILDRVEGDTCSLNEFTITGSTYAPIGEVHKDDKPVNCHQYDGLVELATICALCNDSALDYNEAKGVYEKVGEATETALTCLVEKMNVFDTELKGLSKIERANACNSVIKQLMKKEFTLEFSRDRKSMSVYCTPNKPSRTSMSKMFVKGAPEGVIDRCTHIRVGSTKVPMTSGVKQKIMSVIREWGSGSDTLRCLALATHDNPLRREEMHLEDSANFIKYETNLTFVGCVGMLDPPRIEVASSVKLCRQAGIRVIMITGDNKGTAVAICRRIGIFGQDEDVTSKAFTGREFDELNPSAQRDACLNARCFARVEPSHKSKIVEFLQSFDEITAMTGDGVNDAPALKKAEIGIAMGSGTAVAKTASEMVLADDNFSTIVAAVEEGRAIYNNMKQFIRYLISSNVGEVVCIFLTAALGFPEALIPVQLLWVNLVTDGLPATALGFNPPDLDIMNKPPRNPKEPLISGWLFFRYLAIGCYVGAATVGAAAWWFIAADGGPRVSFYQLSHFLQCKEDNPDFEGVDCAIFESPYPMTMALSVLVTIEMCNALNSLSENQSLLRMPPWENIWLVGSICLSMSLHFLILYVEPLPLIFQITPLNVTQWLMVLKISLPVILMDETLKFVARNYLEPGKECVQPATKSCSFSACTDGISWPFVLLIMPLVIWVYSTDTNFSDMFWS
UniProt Q92736: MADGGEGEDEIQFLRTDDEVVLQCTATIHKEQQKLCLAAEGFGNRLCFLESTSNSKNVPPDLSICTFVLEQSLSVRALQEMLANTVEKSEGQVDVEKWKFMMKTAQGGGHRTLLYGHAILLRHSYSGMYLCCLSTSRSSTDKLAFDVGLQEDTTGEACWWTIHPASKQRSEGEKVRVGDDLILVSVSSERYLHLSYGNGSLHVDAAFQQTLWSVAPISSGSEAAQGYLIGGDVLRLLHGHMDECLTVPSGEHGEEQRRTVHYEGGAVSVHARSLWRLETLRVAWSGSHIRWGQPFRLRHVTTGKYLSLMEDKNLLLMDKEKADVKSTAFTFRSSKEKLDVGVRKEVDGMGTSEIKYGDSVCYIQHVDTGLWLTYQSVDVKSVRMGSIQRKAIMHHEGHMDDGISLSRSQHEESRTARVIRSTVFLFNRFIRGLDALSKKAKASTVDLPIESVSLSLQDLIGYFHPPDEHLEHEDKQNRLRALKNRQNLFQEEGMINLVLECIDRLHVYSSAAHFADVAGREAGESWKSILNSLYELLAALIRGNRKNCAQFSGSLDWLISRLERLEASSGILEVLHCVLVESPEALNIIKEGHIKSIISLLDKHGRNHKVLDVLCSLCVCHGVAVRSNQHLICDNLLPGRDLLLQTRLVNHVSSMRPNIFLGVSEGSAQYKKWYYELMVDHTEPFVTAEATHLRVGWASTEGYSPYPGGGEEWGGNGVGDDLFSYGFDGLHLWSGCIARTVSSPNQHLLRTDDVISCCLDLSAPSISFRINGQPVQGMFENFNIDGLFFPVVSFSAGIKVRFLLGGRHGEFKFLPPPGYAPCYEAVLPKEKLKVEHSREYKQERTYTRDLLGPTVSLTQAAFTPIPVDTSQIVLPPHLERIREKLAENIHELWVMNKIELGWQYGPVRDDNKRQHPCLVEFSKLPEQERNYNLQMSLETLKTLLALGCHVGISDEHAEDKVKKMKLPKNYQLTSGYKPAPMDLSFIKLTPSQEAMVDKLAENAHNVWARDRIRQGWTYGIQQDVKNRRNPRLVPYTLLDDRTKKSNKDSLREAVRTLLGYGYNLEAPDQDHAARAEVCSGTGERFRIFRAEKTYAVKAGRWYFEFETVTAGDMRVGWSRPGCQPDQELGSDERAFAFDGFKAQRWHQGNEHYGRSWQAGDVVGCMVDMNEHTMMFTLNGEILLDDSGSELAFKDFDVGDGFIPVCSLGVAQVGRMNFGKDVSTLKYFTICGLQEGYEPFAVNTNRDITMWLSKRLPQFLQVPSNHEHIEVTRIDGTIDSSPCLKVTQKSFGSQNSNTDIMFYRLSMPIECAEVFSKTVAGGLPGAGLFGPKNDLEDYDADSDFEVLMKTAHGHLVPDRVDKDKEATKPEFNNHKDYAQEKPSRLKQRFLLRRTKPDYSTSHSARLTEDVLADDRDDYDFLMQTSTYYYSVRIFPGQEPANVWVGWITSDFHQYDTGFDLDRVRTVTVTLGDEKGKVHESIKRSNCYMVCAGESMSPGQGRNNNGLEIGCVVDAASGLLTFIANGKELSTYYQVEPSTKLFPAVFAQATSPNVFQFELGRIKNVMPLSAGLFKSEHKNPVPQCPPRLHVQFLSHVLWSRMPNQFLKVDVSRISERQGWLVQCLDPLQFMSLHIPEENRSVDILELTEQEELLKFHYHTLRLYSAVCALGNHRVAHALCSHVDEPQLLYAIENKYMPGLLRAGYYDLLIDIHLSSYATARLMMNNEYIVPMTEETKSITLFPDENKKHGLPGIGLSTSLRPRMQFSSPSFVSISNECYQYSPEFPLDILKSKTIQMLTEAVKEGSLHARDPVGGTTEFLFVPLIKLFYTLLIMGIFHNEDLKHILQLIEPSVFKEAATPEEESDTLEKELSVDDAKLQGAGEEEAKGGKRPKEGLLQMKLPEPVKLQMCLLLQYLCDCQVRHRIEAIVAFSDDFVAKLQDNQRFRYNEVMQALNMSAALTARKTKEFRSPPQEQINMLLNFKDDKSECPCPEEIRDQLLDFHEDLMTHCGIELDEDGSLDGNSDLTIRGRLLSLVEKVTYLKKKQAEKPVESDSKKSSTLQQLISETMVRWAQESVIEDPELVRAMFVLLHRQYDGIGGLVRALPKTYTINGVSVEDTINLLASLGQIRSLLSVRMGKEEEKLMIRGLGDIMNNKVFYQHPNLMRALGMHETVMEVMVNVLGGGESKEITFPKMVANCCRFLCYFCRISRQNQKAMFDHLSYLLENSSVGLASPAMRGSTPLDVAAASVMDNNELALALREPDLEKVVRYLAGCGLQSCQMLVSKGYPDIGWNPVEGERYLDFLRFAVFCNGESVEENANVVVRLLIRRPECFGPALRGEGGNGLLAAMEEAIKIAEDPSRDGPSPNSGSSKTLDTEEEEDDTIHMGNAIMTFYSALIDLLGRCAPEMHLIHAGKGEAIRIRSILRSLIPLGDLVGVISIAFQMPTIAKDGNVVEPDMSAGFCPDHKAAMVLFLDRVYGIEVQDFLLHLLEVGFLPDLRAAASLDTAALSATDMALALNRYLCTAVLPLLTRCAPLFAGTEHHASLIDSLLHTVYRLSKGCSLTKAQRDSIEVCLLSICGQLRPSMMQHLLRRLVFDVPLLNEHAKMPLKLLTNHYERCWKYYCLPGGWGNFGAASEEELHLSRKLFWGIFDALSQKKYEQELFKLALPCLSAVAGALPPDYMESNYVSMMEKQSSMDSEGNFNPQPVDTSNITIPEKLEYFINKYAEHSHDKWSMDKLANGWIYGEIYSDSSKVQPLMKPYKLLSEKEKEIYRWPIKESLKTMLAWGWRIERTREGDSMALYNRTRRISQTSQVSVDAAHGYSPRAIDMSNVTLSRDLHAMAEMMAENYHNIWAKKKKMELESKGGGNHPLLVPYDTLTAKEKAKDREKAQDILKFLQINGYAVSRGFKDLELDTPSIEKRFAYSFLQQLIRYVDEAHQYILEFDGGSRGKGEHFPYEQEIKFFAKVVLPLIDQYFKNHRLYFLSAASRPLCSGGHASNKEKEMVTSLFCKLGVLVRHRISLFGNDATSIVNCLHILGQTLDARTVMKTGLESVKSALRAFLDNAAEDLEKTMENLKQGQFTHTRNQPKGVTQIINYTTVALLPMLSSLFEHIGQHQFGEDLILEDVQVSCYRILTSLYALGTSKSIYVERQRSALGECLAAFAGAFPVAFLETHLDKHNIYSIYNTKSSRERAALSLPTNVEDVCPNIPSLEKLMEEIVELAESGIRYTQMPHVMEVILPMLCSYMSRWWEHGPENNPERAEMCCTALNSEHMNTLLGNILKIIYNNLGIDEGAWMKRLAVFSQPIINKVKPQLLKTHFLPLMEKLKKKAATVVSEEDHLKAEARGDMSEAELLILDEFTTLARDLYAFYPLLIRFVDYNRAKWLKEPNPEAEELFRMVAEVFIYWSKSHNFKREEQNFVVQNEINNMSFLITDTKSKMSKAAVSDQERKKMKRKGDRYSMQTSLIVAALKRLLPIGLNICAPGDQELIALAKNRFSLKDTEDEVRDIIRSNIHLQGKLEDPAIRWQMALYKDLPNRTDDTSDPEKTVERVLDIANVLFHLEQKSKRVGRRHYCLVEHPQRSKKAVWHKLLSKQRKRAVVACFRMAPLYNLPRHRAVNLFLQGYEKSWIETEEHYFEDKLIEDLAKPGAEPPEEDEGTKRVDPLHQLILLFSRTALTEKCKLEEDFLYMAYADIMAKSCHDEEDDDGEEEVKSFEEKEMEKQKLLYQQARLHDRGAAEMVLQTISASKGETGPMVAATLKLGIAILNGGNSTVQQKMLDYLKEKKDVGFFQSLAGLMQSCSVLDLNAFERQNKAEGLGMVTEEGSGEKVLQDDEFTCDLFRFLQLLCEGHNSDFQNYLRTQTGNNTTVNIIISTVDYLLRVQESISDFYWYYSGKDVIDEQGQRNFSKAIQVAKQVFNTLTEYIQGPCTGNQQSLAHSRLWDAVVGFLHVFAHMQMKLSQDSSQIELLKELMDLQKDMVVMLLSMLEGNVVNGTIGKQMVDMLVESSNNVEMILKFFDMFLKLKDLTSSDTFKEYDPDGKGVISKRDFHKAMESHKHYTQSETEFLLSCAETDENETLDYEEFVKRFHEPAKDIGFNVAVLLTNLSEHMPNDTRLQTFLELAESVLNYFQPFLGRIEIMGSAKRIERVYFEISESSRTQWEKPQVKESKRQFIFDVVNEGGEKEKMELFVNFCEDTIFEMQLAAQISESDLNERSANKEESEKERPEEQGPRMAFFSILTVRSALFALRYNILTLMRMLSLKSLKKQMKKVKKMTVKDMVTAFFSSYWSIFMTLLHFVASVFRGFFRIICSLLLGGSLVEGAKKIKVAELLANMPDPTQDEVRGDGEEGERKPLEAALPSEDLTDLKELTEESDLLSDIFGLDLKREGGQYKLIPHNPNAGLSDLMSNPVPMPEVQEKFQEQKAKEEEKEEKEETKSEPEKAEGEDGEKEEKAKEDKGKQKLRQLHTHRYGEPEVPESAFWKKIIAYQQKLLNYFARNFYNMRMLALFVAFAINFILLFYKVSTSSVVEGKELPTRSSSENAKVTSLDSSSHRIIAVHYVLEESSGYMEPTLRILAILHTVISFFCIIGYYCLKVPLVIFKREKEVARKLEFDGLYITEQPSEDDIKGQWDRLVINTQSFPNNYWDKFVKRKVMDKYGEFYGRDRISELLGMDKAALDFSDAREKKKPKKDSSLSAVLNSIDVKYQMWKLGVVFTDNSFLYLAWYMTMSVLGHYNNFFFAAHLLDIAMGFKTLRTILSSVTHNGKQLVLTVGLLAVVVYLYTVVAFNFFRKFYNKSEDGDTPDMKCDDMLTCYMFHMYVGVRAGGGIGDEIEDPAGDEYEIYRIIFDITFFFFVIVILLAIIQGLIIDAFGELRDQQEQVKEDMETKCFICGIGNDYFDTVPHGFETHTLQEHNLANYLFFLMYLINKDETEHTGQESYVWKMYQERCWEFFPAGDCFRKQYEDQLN

Results are given in words; binding and its absence hold for the method and conditions named. In cells and extracts the contact can be indirect. For some assays here: A result given as binding can be weak or reduced; the word gives no strength.

For the substance “Myc-tagged SELENOT^U49C (from UniProt P62341)”, the binding entry in experiment [1] is given as “binds”. Turning to “ryanodine receptor 2 (RYR2) (from UniProt Q92736 1-4967)”, the binding entry with Myc-tagged SELENOT^U49C is on record as “no binding”.

The record behind these values is PMC12084338.
